Literature values, collected in paper PMC9804871, “Effect of Opicapone on Levodopa Pharmacokinetics in Patients with Fluctuating Parkinson's Disease” (Movement Disorders, 2022).

Conditions: cited from earlier work

N[C@@H](Cc1ccc(O)c(O)c1)C(=O)O [LD, levodopa]
half-life of LD: ≈ 90 minutes
